This assay has as its target T1, C-terminally TAP-tagged Tsr1 (S. cerevisiae) (UniProt Q07381).
T1 sequence: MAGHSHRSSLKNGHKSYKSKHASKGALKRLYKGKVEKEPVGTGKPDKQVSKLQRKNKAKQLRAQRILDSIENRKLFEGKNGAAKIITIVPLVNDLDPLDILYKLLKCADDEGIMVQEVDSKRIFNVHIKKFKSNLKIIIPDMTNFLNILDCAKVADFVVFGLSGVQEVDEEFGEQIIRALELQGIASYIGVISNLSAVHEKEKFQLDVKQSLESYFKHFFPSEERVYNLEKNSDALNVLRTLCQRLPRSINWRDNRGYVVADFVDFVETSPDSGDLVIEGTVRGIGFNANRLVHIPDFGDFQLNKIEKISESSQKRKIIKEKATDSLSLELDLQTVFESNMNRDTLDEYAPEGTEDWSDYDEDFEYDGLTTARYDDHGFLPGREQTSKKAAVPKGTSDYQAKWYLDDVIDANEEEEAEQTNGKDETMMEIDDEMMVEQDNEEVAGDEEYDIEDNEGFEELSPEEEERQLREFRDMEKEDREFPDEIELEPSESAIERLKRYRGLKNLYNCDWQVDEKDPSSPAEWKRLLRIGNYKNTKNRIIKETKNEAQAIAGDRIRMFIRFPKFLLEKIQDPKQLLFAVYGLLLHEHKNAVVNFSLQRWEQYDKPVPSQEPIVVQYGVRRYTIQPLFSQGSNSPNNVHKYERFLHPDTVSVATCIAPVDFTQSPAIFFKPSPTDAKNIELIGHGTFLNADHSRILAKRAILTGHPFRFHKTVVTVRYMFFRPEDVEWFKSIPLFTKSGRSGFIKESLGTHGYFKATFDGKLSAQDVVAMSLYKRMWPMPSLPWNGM
Put plainly: cryo-EM structure; pre-40S particles from rps20Δloop cells purified via Tsr1-TAP (lysis buffer with 5 mM MgCl2) and a 10–30% sucrose gradient; single particle analysis, classes C1-S20Δloop (3.47 Å) and C2-S20Δloop (3.79 Å); the partners stand in one ribonucleoprotein particle.

Amino acid sequences for entries named in this document (tags omitted). A change or cut given only in a name is not applied to a line headed by its entry.
UniProt Q08745: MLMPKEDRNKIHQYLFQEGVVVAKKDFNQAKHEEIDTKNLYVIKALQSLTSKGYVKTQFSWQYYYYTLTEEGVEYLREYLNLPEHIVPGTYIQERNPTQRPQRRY

These are yes or no findings as the source states them, for the method shown. Binding calls can cover weak binding; strength is not graded here. Where a sequence is shown, tags or fusion partners need not be part of it.

For the substance “Rps10 (endogenous) (from UniProt Q08745)”, the binding entry was “binds”.
